Values from PubChem BioAssay AID1259425 (University of Nebraska Medical Center, 2018)
Assay: 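Compare each knockdown with KSR1 silencing using changes in marker transcripts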 (primary screen). Cell system: HCT116 human colon cancer cells. Knock-down reagent: siRNA pool against human genes, 50 nM siRNA. Read-out: 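mRNA of six signature genes measured together by branched-DNA assay after 50 nM siRNA pool, blank removed, divided by geometric mean of two housekeeping genes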. Scale: BNIP3L mRNA: higher = more BNIP3L transcript after knockdown; NDRG1 mRNA: higher = more NDRG1 transcript after knockdown.
Shown is an unselected part of about 14,000 reagents tested. Further read-outs or replicates are left out here. Reagent sequences are not shown. The record does not give: the time to read-out.

no.	gene	BNIP3L mRNA, set 1	NDRG1 mRNA, set 1
1	CIC	0.059	0.0875
2	VAMP3	0.102	0.245
3	POMP	0.694	2.76
4	DEK	0.0957	0.183
5	RHPN2	0.142	0.614
6	SLC13A2	0.147	0.626
7	SLC6A11	0.0638	0.234
8	MYH4	0.135	0.622
9	ARF6	0.15	0.123
10	IGHMBP2	0.0797	0.165
11	RPL5	0.0948	0.228
12	LIPE	0.168	0.187
13	ZBTB43	0.04	0.286
14	FAM20A	0.0825	0.34
15	ABCA2	0.12	0.395
16	SLC25A4	0.105	0.0692
17	SOX6	0.176	0.243
18	CHKA	0.112	0.0402
19	PLAA	0.327	0.912
20	PLPP5	0.128	0.147
21	RAB9B	0.161	0.18
22	SIK2	0.0657	0.0746
23	PAG1	0.157	0.0311
24	TEX35	0.202	0.407
25	DUSP9	0.111	0.528
26	ATP8B1	0.0787	0.261
27	HSD17B4	0.113	0.34
28	NCAM1	0.0651	0.347
29	KPNB1	0.0835	0.132
30	NFYC	0.122	0.247
31	RASGRP3	0.0693	0.198
32	TWF2	0.0717	0.206
33	RBM27	0.111	0.34
34	PRKCSH	0.139	0.0803

In a second layout: 3 of the entries above
| gene | BNIP3L mRNA, set 1 | NDRG1 mRNA, set 1 |
| --- | --- | --- |
| TWF2 | 0.0717 | 0.206 |
| RBM27 | 0.111 | 0.34 |
| PRKCSH | 0.139 | 0.0803 |
